According to PubChem BioAssay AID1745846 (National Center for Advancing Translational Sciences (NCATS), 2022):
Screen size: about 1,400 compounds; about 30 (2%) were called active. About 15% were inconclusive and are not listed. Calls follow the shape of the dose curve; as a rule, active = well fitted inhibition curve with a large enough effect; inconclusive = small, poorly fitted or top-dose-only effect; inactive = flat fitted curve, though single readings scatter. Some of the results follow.

experiment: Firefly Luciferase Counterscreen for Inhibitors of ATXN expression; conditions: luminescence; series mostly up to 57.5 µM; activity change, negative = inhibition: at the top concentration
Method in brief: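 Recombinant firefly luciferase at 10 nM final in 50 mM Tris pH 7.5, 10 mM MgCl2, 0.05% BSA, 0.01% Tween20 with substrate; compounds up to 57 uM final, 10 min room temperature, end-point luminescence. Buffer-only wells define 100% inhibition.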
% is scaled to controls: 0 for no effect and ±100 for the full control effect.

SMILES	activity change, negative = inhibition
COCCNc1nc(-c2cc(C)n(CCc3ccc(OC)cc3)c2C)cs1	inactive: -5.72%
Cc1cc2c(c(/C=C/C(=O)c3ccccc3)c1)OC1(C=C2)Oc2ccccc2C(=O)N1C (configuration not stated)	inactive: 0.945%
COc1ccccc1N1CCN(Cc2cc(Br)c(O)c3ncccc23)CC1	inactive: 0.669%
C=CCc1ccccc1OCC(=O)N/N=C/c1ccc(OC(C)=O)cc1OC(C)=O	inactive: -12.9%
O=C(Nc1ccc(OC(F)F)c(Cl)c1)C(c1ccccc1)c1ccccc1	inactive: -1.79%
C/C(=N\NC(=O)CCCNc1ccc(C)cc1)c1ccccn1	inactive: -2.4%
OCCN1CCN(C2CCC(c3ccc(F)cc3)c3ccc(F)cc32)CC1 (configuration not stated)	inactive: 1.87%
NC(=O)c1cc([N+](=O)[O-])ccc1NCc1ccc(N)cc1	inactive: -11.5%
CC(=O)Oc1ccc(C23c4ccccc4C2(OC(C)=O)c2cc(OC(C)=O)ccc23)cc1 (configuration not stated)	inactive: -2.35%
Cc1sc2nc(C3CC3)nc(N3CCN(C(=O)c4ccc(F)cc4)CC3)c2c1C	inactive: 3.95%
NC(=S)n1[nH]c(-c2ccc([N+](=O)[O-])cc2)c(N=Nc2cccc(Cl)c2)c1=O	inactive: -15.3%
CC(C)C1C(=O)N(Cc2cn(CCC3OCCO3)nn2)CCS(=O)(=O)N1Cc1ccc(-c2ccc(Cl)cc2)cc1 (configuration not stated)	inactive: -3.28%
CCCCCc1ccc(OCCC[n+]2ccccc2)c(CCCCC)c1	inactive: 3.83%
Cn1nnnc1Sc1ncnc2scc(Br)c12	inactive: 2.76%
Cc1cc(Nc2cccc([N+](=O)[O-])c2)n2c(nc3ccccc32)c1C#N	inactive: -0.0683%
Cc1nc2ccccc2n1-c1nc(-c2ccco2)cc(C(F)(F)F)n1	inactive: -1.97%
c1ccc2c(c1)c1c(c3ccccc32)CN2CCCC2C1 (configuration not stated)	inactive: -8.97%
Cc1cccc(OCC(=O)NCC(=O)N/N=C/c2cc(Br)cc(Br)c2O)c1	inactive: -17.3%
COc1ccccc1C(=O)NNC(=O)c1nn(Cc2ccccc2)c(=O)c2ccccc12	inactive: -14.4%
CCOc1cc(CNCCO)cc(Br)c1OCc1ccccc1	inactive: 2.7%
COc1ccc(CC(N)c2csc(NC(=O)CCc3ccccc3)n2)cc1 (configuration not stated)	inactive: 1.99%
O=C(c1cnc(N2CCN(c3ccccn3)CC2)c2ccccc12)N1CCN(c2cccc(Cl)c2)CC1	inactive: 0.857%
Cn1nnnc1Sc1ncnc2scc(-c3ccsc3)c12	inactive: -8.77%
OC[C@@H]1[C@@H](c2ccc(Cl)cc2)C(c2cccc(Cl)c2)=NN1c1ccccc1	inactive: 0.588%
CCCCN(C(=O)c1cccc2c(=O)c(C)c(-c3ccccc3)oc12)c1ccccc1	inactive: -7.85%
COc1ccccc1-c1cc2nc(-c3ccccc3)cc(N3CCN(C(=O)c4ccoc4)CC3)n2n1	inactive: -4.06%

SMILES	activity change, negative = inhibition
Cn1c(SCC(=O)N/N=C/c2ccc([N+](=O)[O-])s2)nnc1-c1ccc(Cl)cc1	inactive: -15.1%
OCCN1CCN(c2nc(-c3ccccc3O)nc3ccccc23)CC1	inactive: 2.35%
Cc1ccc(/C=C2/CNC/C(=C/c3ccc(C)cc3)C2=O)cc1	inactive: -13%
CC(C)CCNC(=O)COc1cccc2c1OC(C)(C)C2	inactive: 1.13%
CCCC(=O)NC(c1ccc(OC)c(OC)c1)c1cc(Cl)c2cccnc2c1O (configuration not stated)	inactive: -15.3%
CC1CCCCN1S(=O)(=O)c1ccc(C(=O)Nc2nnc(-c3ccncc3)o2)cc1 (configuration not stated)	inactive: -7.65%
CC(=O)Nc1cccc(-c2ccnc3c2CC(C)(C(=O)Nc2ccc(F)c(Cl)c2)O3)c1 (configuration not stated)	inactive: 1.32%
COc1ccc(N(C)S(=O)(=O)c2ccc(Cl)c(C(=O)NCCc3ccc(Cl)cc3)c2)cc1	inactive: -4.37%
Cc1ccc(S(=O)(=O)Nc2cccc3cccnc23)cc1	inactive: -8.69%
NS(=O)(=O)c1ccc(CCNc2ccn3nc(-c4cccc(C(F)(F)F)c4)cc3n2)cc1	inactive: -6.02%
CCC(=O)NNC(=S)NC(=O)c1ccc(C)cc1	inactive: -8.2%
Cc1cc[n+](C(C)C(=O)c2ccc(-c3ccccc3)cc2)cc1 (configuration not stated)	inactive: 2.94%
COc1ccccc1N1C(=O)N(C(C)=O)C2C1Nc1ccccc1N2C (configuration not stated)	inactive: -12.5%
Cc1nc(SC2CC(=O)N(c3ccccc3)C2=O)n[nH]1 (configuration not stated)	inactive: -4.95%
O=C(Nc1ccc(NC(=O)c2ccco2)cc1)c1ccc2c(c1)OCCO2	inactive: -18.4%
CCc1c2c(nc3ccc(OC(=O)N4CCC(N5CCCCC5)CC4)cc13)-c1cc3c(c(=O)n1C2)COC(=O)[C@]3(O)CC	inactive: -0.243%
CCn1c(C)nc2cc(C(=O)N/N=C(\C)c3ccc(OC)cc3O)ccc21	inactive: -15.4%
C(=N\NC(=Nc1ccccc1)c1ccccn1)/c1ccccn1	inactive: -7.15%
COc1cccc(/C=N/NC(=O)c2ccc(-c3ccccc3)cc2)c1O	inactive: 1.65%
O=C(N/N=C(\c1ccccc1)c1ccccn1)c1ccccc1Cl	inactive: -10.3%
CCc1ccc(C(O)c2ncc(-c3cccc(C(F)(F)F)c3)[nH]2)cc1 (configuration not stated)	inactive: -4.68%
O=[N+]([O-])c1ccc(O)c(/C=N\N=C2c3ccccc3-c3ccccc32)c1	inactive: -3.8%
CCCOc1ccc(C(=O)C(CN2CCOCC2)c2ccccc2)cc1 (configuration not stated)	inactive: 0.919%
CCn1c2ccccc2c2cc(NC(=O)COC(=O)C3CCC(=O)N3)ccc21 (configuration not stated)	inactive: -8.44%
COc1ccccc1NC(=O)Nc1nc(CC(=O)N2CCN(c3ccccc3)CC2)cs1	inactive: -16.8%
CCCCC/C=C/C1=CC(=O)C[C@H](c2ccc(OC)c(OC)c2)C1	inactive: -0.984%

SMILES	activity change, negative = inhibition
Cc1ccc(Sc2nnc(Cc3ccccc3)c3ccccc23)cc1	inactive: -5.16%
CCOC(=O)c1c2ccc(OCC(=O)N/N=C/c3ccc(C)cc3)cc2n2ccccc12	inactive: 0.619%
CCCC(NCC(O)COc1ccc(-c2ccccc2)cc1)c1ccccc1 (configuration not stated)	inactive: -3.86%
Cc1cccc2[nH]c3c(N4CC=C(c5ccc(F)cc5)CC4)ncnc3c12	inactive: -7.26%
Oc1cccc(C(O)CNCc2ccc(-c3ccccc3)cc2)c1 (configuration not stated)	inactive: -4.94%
CCc1ccccc1OCC(=O)Nc1nc(-c2cccnc2)cs1	inactive: -8.34%
COc1ccc(Cl)cc1C(Nc1cccnc1)c1ccc2cccnc2c1O (configuration not stated)	inactive: -1.9%
CCN(CC)c1c(C)nc2ccc(C(=O)Nc3cc(-c4ccccc4)ccc3OC)cn12	inactive: -8.24%
COCCCn1c(N)c(-c2nc3ccccc3n2C)c2nc3ccccc3nc21	inactive: 0.41%
Cc1cccc2sc(N(CCCN(C)C)C(=O)c3ccco3)nc12	inactive: -1.73%
Nc1c(C(=O)NCc2ccc3c(c2)OCO3)c2nc3ccccc3nc2n1CCCN1CCOCC1	inactive: -0.895%
COc1ccc(C(=O)C=CNNC(=O)c2ccc(Cl)cc2)cc1	inactive: -8.14%
OC[C@@H]1CN(Cc2ccc(-c3ccccc3)cc2)C[C@H](n2cnc3c(Nc4ccccc4)ncnc32)O1	inactive: 1.15%
Cc1cc(C)c(C)c(OC(=O)c2sc(Cl)nc2C)c1	inactive: -1.32%
O=C(N/N=C\c1ccc([N+](=O)[O-])s1)c1cncc(Br)c1	inactive: -0.173%
Cc1ccc(NC(=O)c2cnc(N3CCN(c4ccccn4)CC3)c3ccccc23)c(Br)c1	inactive: -2.3%
CCCc1cnc(NCCNCC(O)COc2ccc(Cl)c(Cl)c2)nc1 (configuration not stated)	inactive: 3.12%
COc1ccccc1NS(=O)(=O)c1cccc(C(=O)N/N=C/c2ccc([N+](=O)[O-])o2)c1	inactive: 0.633%
CCn1c2ccccc2c2cc(C3C(C#N)=C(N)Oc4n[nH]c(COC)c43)ccc21 (configuration not stated)	inactive: -13%
Cc1nn2c(NCc3ccccn3)c3c(nc2c1-c1ccccc1)CCC3	inactive: -7.77%
Cc1ncc(CO)c(/C=N/NC(=O)c2cccc(S(=O)(=O)N3CCCC3)c2)c1O	inactive: -3.06%
Clc1ccc2nc(-c3ccccn3)c(Nc3ccc4c(c3)OCO4)n2c1	inactive: -0.752%
Cc1ccc2ccc(C(Nc3ccccn3)c3ccccc3)c(O)c2n1 (configuration not stated)	inactive: -7.07%
Nc1ccn([C@@H]2O[C@H](CO)[C@@H](O)C2O)c(=O)n1 (some centres not stated)	inactive: 3.72%
Cc1cc(C)cc(C(=O)NC(=S)Nc2ccc(-c3cc4ccccc4oc3=O)cc2)c1	inactive: -6.17%
CCCCC(=O)NC(c1ccc(OC)c(OC)c1)c1ccc2cccnc2c1O (configuration not stated)	inactive: -1.52%

Taken from above.
Entry for `COc1ccc(Cl)cc1C(Nc1cccnc1)c1ccc2cccnc2c1O` (configuration not stated) under activity change, negative = inhibition: inactive: -1.9%
Entry for `CCc1ccccc1OCC(=O)Nc1nc(-c2cccnc2)cs1` under activity change, negative = inhibition: inactive: -8.34%
Entry for `CCN(CC)c1c(C)nc2ccc(C(=O)Nc3cc(-c4ccccc4)ccc3OC)cn12` under activity change, negative = inhibition: inactive: -8.24%
Entry for `Cc1ncc(CO)c(/C=N/NC(=O)c2cccc(S(=O)(=O)N3CCCC3)c2)c1O` under activity change, negative = inhibition: inactive: -3.06%
Entry for `Oc1cccc(C(O)CNCc2ccc(-c3ccccc3)cc2)c1` (configuration not stated) under activity change, negative = inhibition: inactive: -4.94%
Entry for `Nc1c(C(=O)NCc2ccc3c(c2)OCO3)c2nc3ccccc3nc2n1CCCN1CCOCC1` under activity change, negative = inhibition: inactive: -0.895%
Entry for `COCCCn1c(N)c(-c2nc3ccccc3n2C)c2nc3ccccc3nc21` under activity change, negative = inhibition: inactive: 0.41%

Next records

SMILES	activity change, negative = inhibition
Oc1c(C(c2ccccn2)N2CCC(Cc3ccccc3)CC2)cc(Cl)c2cccnc12 (configuration not stated)	inactive: -3%
Cc1cnc(NC(=O)CN2CCN(c3ccccn3)CC2)s1	inactive: -0.537%
NNc1ncnc2scc(-c3ccc(Cl)cc3)c12	inactive: -3.67%
COc1ccccc1-c1cc(NC=O)c2ncc(-c3ccc(F)cc3)n2c1	inactive: -1.97%
CC1CCC(CN2C(Nc3ccccc3)=NC[C@@H]2Cc2ccccc2)CC1 (some centres not stated)	inactive: 0.876%
O=c1cc(-c2ccncc2)oc2c1ccc1ccccc12	inactive: -9.69%
Cc1cc(SCC(=O)NN)c2cc(Br)ccc2n1	inactive: -5.09%
O=C(CNC(=O)c1ccccc1Br)N/N=C/c1ccccc1O	inactive: -5.02%
Cc1cccc(NC(=O)c2ccc(S(=O)(=O)N(C)c3ccccc3)cc2)n1	inactive: -14.2%
COc1cc2nc(CN(C)Cc3ccc(SC)cc3)[nH]c(=O)c2cc1OC	inactive: -1.17%
Cc1ccc(N(C)S(=O)(=O)c2cccc(C(=O)OCC(=O)c3c(N)n(C)c(=O)n(C)c3=O)c2)cc1	inactive: 0.56%
Cc1ccc(S(=O)(=O)c2nc(NCc3ccc4c(c3)OCO4)sc2Cl)cc1	inactive: -12%
O=C(N/N=C\c1c(O)ccc2ccccc12)c1ccc(S(=O)(=O)N2CCCCC2)cc1	inactive: -3.32%
COc1ccc(C(=O)NCC(=O)N/N=C/c2ccc([N+](=O)[O-])s2)cc1OC	inactive: -3.6%
O=C(NN=Cc1ccccc1O)c1cccc([N+](=O)[O-])c1	inactive: -1.53%
Cc1ccc(F)cc1-c1cc2nc(NCCCN(C)C)n(C)c(=O)c2s1	inactive: 4.86%
CC(O)CNCCNCc1c(OCc2ccccc2)ccc2ccccc12 (configuration not stated)	inactive: 1.89%
Cc1cc(NCc2ccccn2)n2nc(C)c(-c3ccc(Cl)cc3)c2n1	inactive: -5.83%
O=C(CSc1nc2ncc(Br)cc2[nH]1)Nc1ccccc1-c1ccccc1	inactive: -15.3%
c1ccc(CN=C(NCc2ccccc2)NCc2ccccc2)cc1	inactive: 4.1%
CC(=O)Nc1ccc(N(CC(O)Cn2c3ccccc3c3ccccc32)S(=O)(=O)c2ccc(C)cc2)cc1 (configuration not stated)	inactive: 1.22%
CCN1CCN(CCCNC(=O)c2ccc(/C=C3/Sc4ccccc4N(Cc4ccccc4F)C3=O)cc2)CC1	inactive: -17.5%
CCCCC(=O)NC(c1ccccc1)c1ccc2cccnc2c1O (configuration not stated)	inactive: 0.103%
Cc1[nH]c(=O)c(C(=O)/C=C/c2ccccc2)c2c1CCCC2	inactive: 1.46%
